According to article PMC7835385:
No constants are given. Whether binding was seen depends on the method and setting. Some results given as binding are weak or reduced against the parent protein; the word gives no strength.

Biological target: myosin-7a heavy chain (Drosophila), FLAG-tagged, co-expressed with light chains (Drosophila) (UniProt Q9V3Z6)
Assay: co-purification (FLAG affinity chromatography) with SDS-PAGE densitometry; heavy chain and light chains co-expressed in Sf9; heavy chain captured by its FLAG tag; 150 mM NaCl, 2 mM ATP washes

Drosophila cytoplasmic myosin light chain (Mlc-c) (from UniProt P54357 1-147)
binding: binds

B1: Drosophila RLC/sqh (protein, UniProt P40423 1-174)
light: MSSRKTAGRRATTKKRAQRATSNVFAMFDQAQIAEFKEAFNMIDQNRDGFVEKEDLHDMLASLGKNPTDDYLDGMMNEAPGPINFTMFLTLFGERLQGTDPEDVIKNAFGCFDEENMGVLPEDRLRELLTTMGDRFTDEDVDEMYREAPIKNGLFDYLEFTRILKHGAKDKDEQ
binding: no binding
